The text below walks through data of article PMC10990277.

No constants are given. Whether binding was seen depends on the method and setting. Binding seen in cells or lysates may run through a third protein. A yes stands for co-enrichment or nearness to the bait. Other partners may have been found.

The target in this experiment is E-HA/TurboID^Site3 (SARS-CoV-2) (UniProt P0DTC4). Kind of experiment: proximity labelling.

B1: retention in endoplasmic reticulum sorting receptor 1 (RER1) (protein, UniProt O15258 1-196)
chain: MSEGDSVGESVHGKPSVVYRFFTRLGQIYQSWLDKSTPYTAVRWVVTLGLSFVYMIRVYLLQGWYIVTYALGIYHLNLFIAFLSPKVDPSLMEDSDDGPSLPTKQNEEFRPFIRRLPEFKFWHAATKGILVAMVCTFFDAFNVPVFWPILVMYFIMLFCITMKRQIKHMIKYRYIPFTHGKRRYRGKEDAGKAFAS
Consider B1, for which the binding entry is “binds”.
